# The supplement of paper PMC7666118
# Amino acid sequences for entries named in this document (tags omitted). A change or cut given only in a name is not applied to a line headed by its entry.
# UniProt P56181: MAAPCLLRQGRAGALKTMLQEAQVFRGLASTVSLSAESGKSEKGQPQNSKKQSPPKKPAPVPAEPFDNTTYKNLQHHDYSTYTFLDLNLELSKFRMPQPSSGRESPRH
# UniProt O15226: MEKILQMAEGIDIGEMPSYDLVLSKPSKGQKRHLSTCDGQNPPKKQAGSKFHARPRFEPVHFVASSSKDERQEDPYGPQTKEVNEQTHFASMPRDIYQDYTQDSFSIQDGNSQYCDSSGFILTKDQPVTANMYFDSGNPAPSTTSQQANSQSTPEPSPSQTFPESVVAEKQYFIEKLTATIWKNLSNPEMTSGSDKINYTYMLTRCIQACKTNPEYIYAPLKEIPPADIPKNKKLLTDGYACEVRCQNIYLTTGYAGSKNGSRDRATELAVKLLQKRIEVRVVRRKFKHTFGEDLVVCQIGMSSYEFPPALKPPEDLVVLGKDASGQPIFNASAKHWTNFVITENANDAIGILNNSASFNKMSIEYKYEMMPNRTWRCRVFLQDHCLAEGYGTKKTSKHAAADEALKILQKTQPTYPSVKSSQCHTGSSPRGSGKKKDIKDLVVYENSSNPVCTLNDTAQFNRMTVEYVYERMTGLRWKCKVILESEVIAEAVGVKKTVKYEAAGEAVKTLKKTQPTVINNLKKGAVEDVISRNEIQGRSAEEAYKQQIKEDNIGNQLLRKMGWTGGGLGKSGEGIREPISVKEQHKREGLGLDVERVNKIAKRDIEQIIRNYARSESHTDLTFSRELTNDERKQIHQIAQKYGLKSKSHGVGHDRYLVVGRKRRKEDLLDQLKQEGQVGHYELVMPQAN
# UniProt Q8NC96: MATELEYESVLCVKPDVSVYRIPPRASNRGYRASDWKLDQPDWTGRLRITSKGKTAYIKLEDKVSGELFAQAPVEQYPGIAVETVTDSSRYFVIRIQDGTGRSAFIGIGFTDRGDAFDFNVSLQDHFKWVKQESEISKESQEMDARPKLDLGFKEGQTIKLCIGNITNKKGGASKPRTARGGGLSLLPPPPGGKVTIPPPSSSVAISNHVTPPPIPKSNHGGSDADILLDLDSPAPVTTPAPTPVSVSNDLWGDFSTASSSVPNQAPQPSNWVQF
# UniProt Q9HBL8: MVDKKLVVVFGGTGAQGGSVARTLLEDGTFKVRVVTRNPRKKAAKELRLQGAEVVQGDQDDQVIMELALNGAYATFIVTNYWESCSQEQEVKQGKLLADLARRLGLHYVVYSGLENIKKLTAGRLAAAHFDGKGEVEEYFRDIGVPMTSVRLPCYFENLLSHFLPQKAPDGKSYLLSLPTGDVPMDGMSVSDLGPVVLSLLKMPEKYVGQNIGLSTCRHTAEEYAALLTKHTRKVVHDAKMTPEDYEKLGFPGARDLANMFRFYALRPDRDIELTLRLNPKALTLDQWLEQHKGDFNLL
# UniProt P02795: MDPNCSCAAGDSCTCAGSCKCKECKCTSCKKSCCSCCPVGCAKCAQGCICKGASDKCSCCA
# UniProt Q13496: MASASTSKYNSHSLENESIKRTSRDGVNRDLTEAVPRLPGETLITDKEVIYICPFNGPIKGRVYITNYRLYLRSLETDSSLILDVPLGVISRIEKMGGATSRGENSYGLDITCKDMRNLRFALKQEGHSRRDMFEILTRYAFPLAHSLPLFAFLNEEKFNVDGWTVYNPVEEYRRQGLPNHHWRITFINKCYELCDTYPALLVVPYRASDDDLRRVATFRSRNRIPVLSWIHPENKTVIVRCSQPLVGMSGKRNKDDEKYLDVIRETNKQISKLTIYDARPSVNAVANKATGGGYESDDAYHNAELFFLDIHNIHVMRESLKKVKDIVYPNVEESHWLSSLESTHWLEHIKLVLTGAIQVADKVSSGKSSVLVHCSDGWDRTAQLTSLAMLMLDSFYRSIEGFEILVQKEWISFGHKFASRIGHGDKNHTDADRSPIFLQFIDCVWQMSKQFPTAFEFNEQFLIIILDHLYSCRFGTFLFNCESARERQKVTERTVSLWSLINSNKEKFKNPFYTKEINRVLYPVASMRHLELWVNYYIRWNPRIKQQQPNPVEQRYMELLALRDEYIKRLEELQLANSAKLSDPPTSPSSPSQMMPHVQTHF
# UniProt Q96DH6: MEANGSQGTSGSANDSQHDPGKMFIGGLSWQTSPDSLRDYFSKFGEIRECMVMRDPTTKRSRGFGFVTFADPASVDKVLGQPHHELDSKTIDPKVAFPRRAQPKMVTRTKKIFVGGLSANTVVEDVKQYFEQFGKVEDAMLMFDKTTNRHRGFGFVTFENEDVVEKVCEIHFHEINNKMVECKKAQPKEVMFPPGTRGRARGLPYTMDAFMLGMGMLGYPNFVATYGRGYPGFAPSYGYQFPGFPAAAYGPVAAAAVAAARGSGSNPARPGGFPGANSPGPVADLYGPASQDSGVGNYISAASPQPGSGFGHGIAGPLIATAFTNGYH
# UniProt Q9BTC8: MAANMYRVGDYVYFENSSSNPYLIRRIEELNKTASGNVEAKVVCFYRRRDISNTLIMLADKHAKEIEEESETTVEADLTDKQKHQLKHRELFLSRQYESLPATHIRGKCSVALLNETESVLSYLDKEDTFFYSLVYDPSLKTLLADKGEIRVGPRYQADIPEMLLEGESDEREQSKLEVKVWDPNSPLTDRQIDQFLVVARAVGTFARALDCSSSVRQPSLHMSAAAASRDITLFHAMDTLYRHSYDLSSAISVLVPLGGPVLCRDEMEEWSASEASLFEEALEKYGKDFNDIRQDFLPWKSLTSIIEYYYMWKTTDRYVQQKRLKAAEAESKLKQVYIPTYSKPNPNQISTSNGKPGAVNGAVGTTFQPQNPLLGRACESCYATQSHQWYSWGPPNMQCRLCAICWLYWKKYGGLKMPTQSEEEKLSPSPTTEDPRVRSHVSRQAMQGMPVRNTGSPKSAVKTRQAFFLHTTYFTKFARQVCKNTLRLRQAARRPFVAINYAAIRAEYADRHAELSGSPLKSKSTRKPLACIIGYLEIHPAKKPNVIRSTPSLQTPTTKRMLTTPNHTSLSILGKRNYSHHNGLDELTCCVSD
# UniProt Q8WTT2: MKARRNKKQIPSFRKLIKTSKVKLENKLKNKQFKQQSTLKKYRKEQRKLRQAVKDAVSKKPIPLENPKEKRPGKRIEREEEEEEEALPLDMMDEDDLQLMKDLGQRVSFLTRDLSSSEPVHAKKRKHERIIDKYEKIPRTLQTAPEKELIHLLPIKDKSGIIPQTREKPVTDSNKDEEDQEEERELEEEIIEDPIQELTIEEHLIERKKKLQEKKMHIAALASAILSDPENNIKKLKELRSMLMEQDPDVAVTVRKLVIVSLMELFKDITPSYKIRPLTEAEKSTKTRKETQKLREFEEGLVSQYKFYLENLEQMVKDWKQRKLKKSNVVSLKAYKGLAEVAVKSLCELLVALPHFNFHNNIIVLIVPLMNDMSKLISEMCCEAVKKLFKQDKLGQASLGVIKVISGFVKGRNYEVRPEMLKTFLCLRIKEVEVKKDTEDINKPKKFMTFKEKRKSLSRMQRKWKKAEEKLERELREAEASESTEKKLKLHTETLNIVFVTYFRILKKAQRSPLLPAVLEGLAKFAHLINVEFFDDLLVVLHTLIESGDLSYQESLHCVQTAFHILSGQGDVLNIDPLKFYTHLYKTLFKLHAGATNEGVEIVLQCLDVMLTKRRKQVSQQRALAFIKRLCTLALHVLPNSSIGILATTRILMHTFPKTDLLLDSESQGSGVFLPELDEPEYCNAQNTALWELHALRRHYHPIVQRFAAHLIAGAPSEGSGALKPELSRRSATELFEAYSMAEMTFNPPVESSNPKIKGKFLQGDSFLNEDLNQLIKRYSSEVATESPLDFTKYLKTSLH
# UniProt Q6KC79: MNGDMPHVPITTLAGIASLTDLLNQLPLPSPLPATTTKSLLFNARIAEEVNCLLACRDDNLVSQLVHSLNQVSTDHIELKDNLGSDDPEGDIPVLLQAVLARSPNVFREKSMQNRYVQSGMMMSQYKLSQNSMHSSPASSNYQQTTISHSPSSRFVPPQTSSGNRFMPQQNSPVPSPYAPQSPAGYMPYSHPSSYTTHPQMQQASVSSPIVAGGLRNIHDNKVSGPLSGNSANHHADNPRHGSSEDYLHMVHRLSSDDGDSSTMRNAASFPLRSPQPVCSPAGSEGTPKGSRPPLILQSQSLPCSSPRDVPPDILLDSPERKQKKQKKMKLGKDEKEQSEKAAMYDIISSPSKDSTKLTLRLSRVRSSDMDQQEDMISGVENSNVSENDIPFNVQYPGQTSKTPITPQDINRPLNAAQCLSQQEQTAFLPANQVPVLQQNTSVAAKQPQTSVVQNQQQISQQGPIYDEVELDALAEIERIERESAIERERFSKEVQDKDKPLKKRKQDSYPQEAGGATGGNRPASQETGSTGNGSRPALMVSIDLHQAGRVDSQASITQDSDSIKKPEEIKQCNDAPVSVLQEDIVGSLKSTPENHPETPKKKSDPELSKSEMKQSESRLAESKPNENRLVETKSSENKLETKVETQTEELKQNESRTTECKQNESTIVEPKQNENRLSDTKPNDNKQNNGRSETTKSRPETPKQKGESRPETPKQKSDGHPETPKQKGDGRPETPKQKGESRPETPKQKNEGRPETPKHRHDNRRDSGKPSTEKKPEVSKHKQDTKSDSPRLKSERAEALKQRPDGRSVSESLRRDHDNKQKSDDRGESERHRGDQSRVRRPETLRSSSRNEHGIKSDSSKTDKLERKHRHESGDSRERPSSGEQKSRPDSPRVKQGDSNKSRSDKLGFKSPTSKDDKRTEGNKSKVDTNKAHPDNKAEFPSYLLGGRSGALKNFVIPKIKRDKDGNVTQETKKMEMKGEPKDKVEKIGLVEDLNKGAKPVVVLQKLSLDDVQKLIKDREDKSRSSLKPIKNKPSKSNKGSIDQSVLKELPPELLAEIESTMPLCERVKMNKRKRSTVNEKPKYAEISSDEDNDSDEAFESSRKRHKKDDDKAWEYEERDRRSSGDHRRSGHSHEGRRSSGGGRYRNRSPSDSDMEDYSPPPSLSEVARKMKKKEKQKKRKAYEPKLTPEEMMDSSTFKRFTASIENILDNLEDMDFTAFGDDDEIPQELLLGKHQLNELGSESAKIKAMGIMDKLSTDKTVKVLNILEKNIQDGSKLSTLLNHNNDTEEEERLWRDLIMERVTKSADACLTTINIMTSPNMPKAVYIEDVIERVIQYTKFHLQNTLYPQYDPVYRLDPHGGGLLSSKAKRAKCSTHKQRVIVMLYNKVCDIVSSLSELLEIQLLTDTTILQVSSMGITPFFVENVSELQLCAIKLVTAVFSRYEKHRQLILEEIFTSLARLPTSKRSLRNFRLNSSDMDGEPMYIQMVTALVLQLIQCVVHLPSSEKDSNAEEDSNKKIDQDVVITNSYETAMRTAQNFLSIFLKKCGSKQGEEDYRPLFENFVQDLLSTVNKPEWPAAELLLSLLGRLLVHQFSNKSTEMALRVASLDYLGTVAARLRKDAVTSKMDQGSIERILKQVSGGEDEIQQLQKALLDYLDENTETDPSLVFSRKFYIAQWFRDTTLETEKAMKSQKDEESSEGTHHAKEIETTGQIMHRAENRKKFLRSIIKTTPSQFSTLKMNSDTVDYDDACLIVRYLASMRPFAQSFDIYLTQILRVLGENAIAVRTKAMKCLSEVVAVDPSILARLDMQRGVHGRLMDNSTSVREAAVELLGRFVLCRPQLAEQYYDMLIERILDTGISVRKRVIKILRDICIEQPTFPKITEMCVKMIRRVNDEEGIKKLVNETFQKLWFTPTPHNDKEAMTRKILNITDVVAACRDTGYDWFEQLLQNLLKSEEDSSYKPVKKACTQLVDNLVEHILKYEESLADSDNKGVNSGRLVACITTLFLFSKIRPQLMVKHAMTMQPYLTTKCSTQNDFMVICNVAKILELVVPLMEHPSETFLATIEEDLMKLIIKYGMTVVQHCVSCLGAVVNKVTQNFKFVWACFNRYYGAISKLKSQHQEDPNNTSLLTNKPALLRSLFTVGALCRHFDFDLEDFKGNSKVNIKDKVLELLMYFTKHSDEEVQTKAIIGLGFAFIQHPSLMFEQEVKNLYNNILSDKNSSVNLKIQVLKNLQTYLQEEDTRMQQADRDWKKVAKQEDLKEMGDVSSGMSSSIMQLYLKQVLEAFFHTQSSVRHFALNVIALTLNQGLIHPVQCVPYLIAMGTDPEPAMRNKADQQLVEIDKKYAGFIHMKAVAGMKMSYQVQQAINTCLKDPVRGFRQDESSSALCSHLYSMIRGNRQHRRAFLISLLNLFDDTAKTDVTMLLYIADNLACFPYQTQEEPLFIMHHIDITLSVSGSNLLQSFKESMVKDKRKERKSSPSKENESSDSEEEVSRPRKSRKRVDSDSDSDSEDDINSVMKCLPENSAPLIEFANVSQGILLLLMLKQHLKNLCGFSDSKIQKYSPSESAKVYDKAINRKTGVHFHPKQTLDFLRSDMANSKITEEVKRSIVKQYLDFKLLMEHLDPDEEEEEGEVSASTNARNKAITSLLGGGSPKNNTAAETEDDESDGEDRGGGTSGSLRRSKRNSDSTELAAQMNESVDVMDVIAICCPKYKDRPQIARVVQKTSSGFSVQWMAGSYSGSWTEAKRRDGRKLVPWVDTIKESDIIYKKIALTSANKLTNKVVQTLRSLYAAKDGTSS
# This is one part of the list.
# Compound: COc1ccc(Cn2ccc3ccc(C(=O)NO)cc32)cc1
# Test: dose-dependent thermal stabilisation call (2D-TPP, DLPTP, 10% FDR) (binary (1 = stabilised)); higher = stabilised by the compound
# Settings: system: HL-60 intact cells; concentration range 0.04-10 µM
row,Target,dose-dependent thermal stabilisation call
1,NPC2 (UniProt P61916),inactive: 0
2,NDUFV1 (UniProt P49821),inactive: 0
3,NFATC2IP (UniProt Q8NCF5),inactive: 0
4,NCAPG2 (UniProt Q86XI2),inactive: 0
5,NDUFV3 (UniProt P56181),inactive: 0
6,NKRF (UniProt O15226),inactive: 0
7,NCKIPSD (UniProt Q9NZQ3),inactive: 0
8,MUTED (UniProt Q8TDH9),inactive: 0
9,NAGPA (UniProt Q9UK23),inactive: 0
10,MYEF2 (UniProt Q9P2K5),inactive: 0
11,NECAP1 (UniProt Q8NC96),inactive: 0
12,MTIF2 (UniProt P46199),inactive: 0
13,NMRAL1 (UniProt Q9HBL8),active: 1
14,NP (UniProt P00491),inactive: 0
15,NEDD8 (UniProt Q15843),inactive: 0
16,NDRG3 (UniProt Q9UGV2),inactive: 0
17,MT2A (UniProt P02795),inactive: 0
18,NFYB (UniProt P25208),inactive: 0
19,NOMO2 (UniProt Q5JPE7),inactive: 0

# Part of the list above, bar-delimited.
row | Target | dose-dependent thermal stabilisation call
2 | NDUFV1 (UniProt P49821) | inactive: 0
3 | NFATC2IP (UniProt Q8NCF5) | inactive: 0
4 | NCAPG2 (UniProt Q86XI2) | inactive: 0
5 | NDUFV3 (UniProt P56181) | inactive: 0
6 | NKRF (UniProt O15226) | inactive: 0
7 | NCKIPSD (UniProt Q9NZQ3) | inactive: 0
8 | MUTED (UniProt Q8TDH9) | inactive: 0
9 | NAGPA (UniProt Q9UK23) | inactive: 0
10 | MYEF2 (UniProt Q9P2K5) | inactive: 0
11 | NECAP1 (UniProt Q8NC96) | inactive: 0

# (further entries)

row,Target,dose-dependent thermal stabilisation call
1,NFYC (UniProt Q13952),inactive: 0
2,NARG1 (UniProt Q9BXJ9),inactive: 0
3,MTM1 (UniProt Q13496),inactive: 0
4,NDUFS3 (UniProt O75489),inactive: 0
5,NDUFS2 (UniProt O75306),inactive: 0
6,MSI2 (UniProt Q96DH6),inactive: 0
7,NFXL1 (UniProt Q6ZNB6),inactive: 0
8,MTRF1L (UniProt Q9UGC7),inactive: 0
9,NOM1 (UniProt Q5C9Z4),inactive: 0
10,NLRC3 (UniProt Q7RTR2),inactive: 0
11,MTA3 (UniProt Q9BTC8),inactive: 0
12,NISCH (UniProt Q9Y2I1),inactive: 0
13,NARS (UniProt O43776),inactive: 0
14,NOC3L (UniProt Q8WTT2),inactive: 0
15,MSL2 (UniProt Q9HCI7),inactive: 0
16,NHLRC3 (UniProt Q5JS37),inactive: 0
17,NIPBL (UniProt Q6KC79),inactive: 0
18,NDNL2 (UniProt Q96MG7),inactive: 0
19,NDST1 (UniProt P52848),inactive: 0
